# Like-named read-outs stand apart in the source and are kept apart here. No constants are given. Whether binding was seen depends on the method and setting. For part of these data: In cells and extracts the contact can be indirect. Some binding calls cover weakened binding; strength is not graded here. For part of these data: Where a sequence is shown, tags or fusion partners need not be part of it.
# Protein sequences, listed by entry. Tags and fused reporters are not part of them. Lines headed by an entry give the natural chain unless they say otherwise; changes in a name come on top. Residues count along the entry.
# UniProt O14786, 22-923: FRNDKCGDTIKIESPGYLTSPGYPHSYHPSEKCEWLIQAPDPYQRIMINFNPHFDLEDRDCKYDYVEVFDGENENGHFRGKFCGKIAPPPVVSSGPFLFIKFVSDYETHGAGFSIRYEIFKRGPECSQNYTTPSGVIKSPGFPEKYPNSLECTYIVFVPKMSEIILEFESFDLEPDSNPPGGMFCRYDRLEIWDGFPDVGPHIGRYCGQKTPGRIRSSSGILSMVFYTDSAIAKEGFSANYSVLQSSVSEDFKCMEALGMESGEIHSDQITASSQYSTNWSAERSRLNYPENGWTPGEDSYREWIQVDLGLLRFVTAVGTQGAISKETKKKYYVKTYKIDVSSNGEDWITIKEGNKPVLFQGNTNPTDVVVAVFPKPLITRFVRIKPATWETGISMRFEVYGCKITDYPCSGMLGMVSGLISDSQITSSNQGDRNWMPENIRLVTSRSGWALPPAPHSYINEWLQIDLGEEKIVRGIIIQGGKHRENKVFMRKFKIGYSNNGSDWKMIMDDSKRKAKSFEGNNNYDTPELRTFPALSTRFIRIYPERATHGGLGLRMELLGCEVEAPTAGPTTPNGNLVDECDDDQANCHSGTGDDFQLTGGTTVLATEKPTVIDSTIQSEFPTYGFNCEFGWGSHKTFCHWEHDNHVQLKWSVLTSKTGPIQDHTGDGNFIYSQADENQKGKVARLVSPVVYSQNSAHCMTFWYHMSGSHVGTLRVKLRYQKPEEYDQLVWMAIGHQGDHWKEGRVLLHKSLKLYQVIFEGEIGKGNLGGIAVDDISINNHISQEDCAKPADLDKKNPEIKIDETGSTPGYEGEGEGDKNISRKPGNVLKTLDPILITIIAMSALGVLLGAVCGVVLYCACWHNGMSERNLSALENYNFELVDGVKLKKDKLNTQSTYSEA
# UniProt P29350, whole entry: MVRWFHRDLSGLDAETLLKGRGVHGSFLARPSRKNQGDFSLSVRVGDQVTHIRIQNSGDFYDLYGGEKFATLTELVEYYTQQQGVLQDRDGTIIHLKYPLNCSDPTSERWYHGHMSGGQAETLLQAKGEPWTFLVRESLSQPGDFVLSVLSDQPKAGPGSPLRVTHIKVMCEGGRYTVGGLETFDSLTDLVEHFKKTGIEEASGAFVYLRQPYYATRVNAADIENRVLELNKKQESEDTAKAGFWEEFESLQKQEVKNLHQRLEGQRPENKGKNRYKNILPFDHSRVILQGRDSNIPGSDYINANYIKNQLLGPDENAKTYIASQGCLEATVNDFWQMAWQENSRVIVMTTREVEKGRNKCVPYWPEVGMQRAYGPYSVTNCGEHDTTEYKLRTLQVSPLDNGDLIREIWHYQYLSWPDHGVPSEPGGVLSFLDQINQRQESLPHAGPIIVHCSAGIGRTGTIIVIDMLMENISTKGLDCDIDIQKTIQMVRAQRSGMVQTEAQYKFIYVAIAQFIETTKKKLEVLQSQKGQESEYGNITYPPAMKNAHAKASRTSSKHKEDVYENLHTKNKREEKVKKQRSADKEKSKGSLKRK
# UniProt Q92854, 22-734: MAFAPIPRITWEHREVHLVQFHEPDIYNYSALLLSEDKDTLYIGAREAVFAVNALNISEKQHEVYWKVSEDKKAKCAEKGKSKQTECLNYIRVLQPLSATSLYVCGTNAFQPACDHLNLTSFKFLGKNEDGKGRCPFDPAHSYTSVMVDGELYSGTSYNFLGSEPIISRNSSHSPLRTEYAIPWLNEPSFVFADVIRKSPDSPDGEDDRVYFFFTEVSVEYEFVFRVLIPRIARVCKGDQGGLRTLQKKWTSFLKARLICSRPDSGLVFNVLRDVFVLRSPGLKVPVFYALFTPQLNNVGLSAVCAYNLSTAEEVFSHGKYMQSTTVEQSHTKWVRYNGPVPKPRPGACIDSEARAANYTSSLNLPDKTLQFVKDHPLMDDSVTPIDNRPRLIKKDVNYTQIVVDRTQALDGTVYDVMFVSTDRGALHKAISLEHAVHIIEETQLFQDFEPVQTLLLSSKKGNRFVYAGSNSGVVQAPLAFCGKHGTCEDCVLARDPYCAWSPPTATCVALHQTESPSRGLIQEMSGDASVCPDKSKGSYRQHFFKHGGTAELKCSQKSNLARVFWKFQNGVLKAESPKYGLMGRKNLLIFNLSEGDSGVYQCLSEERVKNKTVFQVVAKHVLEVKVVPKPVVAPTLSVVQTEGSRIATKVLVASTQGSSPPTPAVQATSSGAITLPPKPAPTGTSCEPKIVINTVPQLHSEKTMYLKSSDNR
# T1: CD72 expressed in BLCL-CD72+ cells (human) (UniProt P21854)
# T1 sequence: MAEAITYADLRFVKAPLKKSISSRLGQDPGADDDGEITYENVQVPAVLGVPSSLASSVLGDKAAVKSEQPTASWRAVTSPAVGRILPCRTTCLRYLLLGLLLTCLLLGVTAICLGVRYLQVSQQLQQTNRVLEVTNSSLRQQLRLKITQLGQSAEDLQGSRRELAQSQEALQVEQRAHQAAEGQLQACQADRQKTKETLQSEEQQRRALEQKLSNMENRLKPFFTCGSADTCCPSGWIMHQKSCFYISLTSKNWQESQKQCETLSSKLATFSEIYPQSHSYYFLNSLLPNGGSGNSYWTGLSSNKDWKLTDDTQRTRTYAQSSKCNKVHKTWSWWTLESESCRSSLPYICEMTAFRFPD
# T2: CD72 fused with a V5 epitope tag, expressed in U87MG-ΔNRP-1-CD72+ cells (human) (UniProt P21854)
# T2 sequence: T1 sequence
# B1: recombinant sema3A fused with 6xHistidine tag (Semaphorin3A) (ligand, UniProt Q14563 21-771)
# chain: NYQNGKNNVPRLKLSYKEMLESNNVITFNGLANSSSYHTFLLDEERSRLYVGAKDHIFSFDLVNIKDFQKIVWPVSYTRRDECKWAGKDILKECANFIKVLKAYNQTHLYACGTGAFHPICTYIEIGHHPEDNIFKLENSHFENGRGKSPYDPKLLTASLLIDGELYSGTAADFMGRDFAIFRTLGHHHPIRTEQHDSRWLNDPKFISAHLISESDNPEDDKVYFFFRENAIDGEHSGKATHARIGQICKNDFGGHRSLVNKWTTFLKARLICSVPGPNGIDTHFDELQDVFLMNFKDPKNPVVYGVFTTSSNIFKGSAVCMYSMSDVRRVFLGPYAHRDGPNYQWVPYQGRVPYPRPGTCPSKTFGGFDSTKDLPDDVITFARSHPAMYNPVFPMNNRPIVIKTDVNYQFTQIVVDRVDAEDGQYDVMFIGTDVGTVLKVVSIPKETWYDLEEVLLEEMTVFREPTAISAMELSTKQQQLYIGSTAGVAQLPLHRCDIYGKACAECCLARDPYCAWDGSACSRYFPTAKRRTRRQDIRNGDPLTHCSDLHHDNHHGHSPEERIIYGVENSSTFLECSPKSQRALVYWQFQRRNEERKEEIRVDDHIIRTDQGLLLRSLQQKDSGNYLCHAVEHGFIQTLLKVTLEVIDTEHLEELLHKDDDGDGSKTKEMSNSMTPSQKVWYRDFMQLINHPNLNTMDEFCEQVWKRDRKQRRQRPGHTPGNSNKWKHLQENKKGRNRRTHEFERAPRSV
# B2: Sema3A fused in frame with alkaline phosphatase (sema3A-AP) (ligand)
# chain: B1 chain
# Columns and labels:
# [1] = target: T1, CD72 expressed in BLCL-CD72+ cells (human); assay: co-IP
# [2] = target: T2, CD72 fused with a V5 epitope tag, expressed in U87MG-ΔNRP-1-CD72+ cells (human); assay: alkaline phosphatase fusion binding to cells
# [3] = target: T2, CD72 fused with a V5 epitope tag, expressed in U87MG-ΔNRP-1-CD72+ cells (human); assay: co-IP
# [4] = target: T2, CD72 fused with a V5 epitope tag, expressed in U87MG-ΔNRP-1-CD72+ cells (human); assay: alkaline phosphatase fusion binding to cells; remark: listed apart in the source
# [5] = target: neuropilin-1 (NRP-1) on parental U87MG cells (human (endogenous in U87MG)) (UniProt O14786); assay: alkaline phosphatase fusion binding to cells
# [6] = target: neuropilin-1 (NRP-1) on parental U87MG cells (human (endogenous in U87MG)) (UniProt O14786); assay: alkaline phosphatase fusion binding to cells; remark: listed apart in the source
# [7] = target: T2, CD72 fused with a V5 epitope tag, expressed in U87MG-ΔNRP-1-CD72+ cells (human); assay: alkaline phosphatase fusion binding to cells; remark: listed apart in the source
# [8] = target: neuropilin-1 (NRP-1) on parental U87MG cells (human (endogenous in U87MG)) (UniProt O14786); assay: alkaline phosphatase fusion binding to cells; remark: listed apart in the source
molecule,measurement,setting,value
SHP-1 (from UniProt P29350 1-595) (enzyme),binding,[1],binds
recombinant human sema4D protein (from UniProt Q92854) (ligand),binding,[2],binds
B1,binding,[3],binds
B2,binding,[4],binds
same,binding,[5],binds
same,binding,[2],binds
same,binding,[6],binds
same,binding,[7],binds
same,binding,[8],binds

# Source: doi:10.1101/2021.08.24.457482 (bioRxiv, 2021)
